Measurements reported in PMC8461901.
Results are given in words; binding and its absence hold for the method and conditions named. In cells and extracts the contact can be indirect. Some binding calls cover weakened binding; strength is not graded here.

Chains of the proteins cited; added tags and fusions are not shown.
UniProt P18085: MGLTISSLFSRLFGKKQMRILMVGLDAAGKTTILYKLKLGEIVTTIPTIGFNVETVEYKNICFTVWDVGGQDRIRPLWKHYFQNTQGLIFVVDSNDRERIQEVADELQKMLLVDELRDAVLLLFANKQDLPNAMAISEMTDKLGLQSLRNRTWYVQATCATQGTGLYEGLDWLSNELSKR
UniProt Q93009: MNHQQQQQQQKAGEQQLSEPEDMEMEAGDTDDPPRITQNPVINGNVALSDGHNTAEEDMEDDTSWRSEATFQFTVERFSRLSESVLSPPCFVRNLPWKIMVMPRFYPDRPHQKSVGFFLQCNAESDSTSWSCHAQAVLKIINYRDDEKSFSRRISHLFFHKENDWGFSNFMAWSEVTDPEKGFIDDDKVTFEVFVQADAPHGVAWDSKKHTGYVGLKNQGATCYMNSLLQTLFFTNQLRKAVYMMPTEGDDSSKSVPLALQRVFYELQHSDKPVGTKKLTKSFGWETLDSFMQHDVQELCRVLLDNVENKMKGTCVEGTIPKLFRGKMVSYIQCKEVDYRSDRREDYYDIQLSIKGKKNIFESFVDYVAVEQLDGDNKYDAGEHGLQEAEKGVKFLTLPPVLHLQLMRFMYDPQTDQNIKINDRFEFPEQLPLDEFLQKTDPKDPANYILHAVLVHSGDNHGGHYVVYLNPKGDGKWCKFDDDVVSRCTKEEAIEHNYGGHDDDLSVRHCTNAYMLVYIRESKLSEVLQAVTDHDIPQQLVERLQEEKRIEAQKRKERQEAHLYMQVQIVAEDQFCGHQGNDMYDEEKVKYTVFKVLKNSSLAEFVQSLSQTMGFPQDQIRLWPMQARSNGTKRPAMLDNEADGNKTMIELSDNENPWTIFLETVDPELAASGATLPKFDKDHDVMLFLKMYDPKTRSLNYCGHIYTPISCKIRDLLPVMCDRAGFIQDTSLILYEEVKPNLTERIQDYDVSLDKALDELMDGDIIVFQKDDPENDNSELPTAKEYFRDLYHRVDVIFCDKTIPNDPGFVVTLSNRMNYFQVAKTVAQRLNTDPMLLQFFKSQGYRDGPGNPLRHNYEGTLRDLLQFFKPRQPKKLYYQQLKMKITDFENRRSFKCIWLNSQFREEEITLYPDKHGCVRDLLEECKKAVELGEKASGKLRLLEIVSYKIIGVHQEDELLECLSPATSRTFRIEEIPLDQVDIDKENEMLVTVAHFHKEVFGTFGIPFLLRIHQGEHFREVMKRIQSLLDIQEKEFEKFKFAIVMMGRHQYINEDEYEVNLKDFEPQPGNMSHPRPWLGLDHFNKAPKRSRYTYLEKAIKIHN

Target: ADP-ribosylation factor 4 (human (endogenous in SHG-140)) (UniProt P18085)
Test: co-IP; anti-ARF4 added to SHG-140 cell protein extracts, protein A/G magnetic beads overnight at 4 °C, washed three times with lysis buffer, immunoblot

binding: binds
Substance: Ubiquitin-specific protease 7 (from UniProt Q93009 1-1102) (enzyme)
